Test results taken from the supplement of paper PMC12823440, “Inhibitors supercharge kinase turnover through native proteolytic circuits” (Nature, 2025).
Where a name gives a salt, the structure may show the parent alone. Some of the results follow. The calls rarely recur for the same compound in another form.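 Kinases, fused to nanoluciferase, were expressed in K562 cells; luminescence was measured every 4 h from 2 to 18 h as percent of control (DMSO = 100%, positive control = 0%). A time point is decreased if signal falls significantly (2 sigma). Hits were called by the authors by a rule that is not shown; the count of time points alone does not decide it.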

Amino acid sequences for entries named in this document (tags omitted). A change or cut given only in a name is not applied to a line headed by its entry.
UniProt O75460: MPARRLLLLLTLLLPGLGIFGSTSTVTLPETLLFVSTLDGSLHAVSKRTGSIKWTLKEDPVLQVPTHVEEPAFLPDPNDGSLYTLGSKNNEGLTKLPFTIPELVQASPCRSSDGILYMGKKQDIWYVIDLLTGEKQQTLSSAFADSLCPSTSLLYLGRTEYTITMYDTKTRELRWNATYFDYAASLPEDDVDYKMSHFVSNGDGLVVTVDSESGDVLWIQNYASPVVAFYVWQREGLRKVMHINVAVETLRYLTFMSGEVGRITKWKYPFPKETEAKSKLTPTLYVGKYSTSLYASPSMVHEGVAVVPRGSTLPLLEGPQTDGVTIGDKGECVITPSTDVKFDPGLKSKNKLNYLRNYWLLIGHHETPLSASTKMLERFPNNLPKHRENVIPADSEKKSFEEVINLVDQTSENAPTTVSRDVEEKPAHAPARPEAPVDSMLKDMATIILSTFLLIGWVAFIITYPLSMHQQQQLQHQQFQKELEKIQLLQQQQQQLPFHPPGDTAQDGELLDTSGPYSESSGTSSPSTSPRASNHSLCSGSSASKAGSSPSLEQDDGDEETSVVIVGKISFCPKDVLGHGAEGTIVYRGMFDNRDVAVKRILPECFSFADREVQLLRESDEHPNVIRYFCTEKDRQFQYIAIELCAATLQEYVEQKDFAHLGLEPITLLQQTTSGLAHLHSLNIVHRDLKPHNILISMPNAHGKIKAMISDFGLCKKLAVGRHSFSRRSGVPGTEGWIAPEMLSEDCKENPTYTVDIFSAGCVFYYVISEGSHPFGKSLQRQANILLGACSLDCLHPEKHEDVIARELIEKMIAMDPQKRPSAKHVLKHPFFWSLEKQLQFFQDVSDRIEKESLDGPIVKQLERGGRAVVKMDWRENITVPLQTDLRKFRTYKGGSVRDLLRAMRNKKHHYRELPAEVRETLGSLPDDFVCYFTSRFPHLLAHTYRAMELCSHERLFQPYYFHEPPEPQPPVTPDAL
UniProt P11362, whole entry, looked up: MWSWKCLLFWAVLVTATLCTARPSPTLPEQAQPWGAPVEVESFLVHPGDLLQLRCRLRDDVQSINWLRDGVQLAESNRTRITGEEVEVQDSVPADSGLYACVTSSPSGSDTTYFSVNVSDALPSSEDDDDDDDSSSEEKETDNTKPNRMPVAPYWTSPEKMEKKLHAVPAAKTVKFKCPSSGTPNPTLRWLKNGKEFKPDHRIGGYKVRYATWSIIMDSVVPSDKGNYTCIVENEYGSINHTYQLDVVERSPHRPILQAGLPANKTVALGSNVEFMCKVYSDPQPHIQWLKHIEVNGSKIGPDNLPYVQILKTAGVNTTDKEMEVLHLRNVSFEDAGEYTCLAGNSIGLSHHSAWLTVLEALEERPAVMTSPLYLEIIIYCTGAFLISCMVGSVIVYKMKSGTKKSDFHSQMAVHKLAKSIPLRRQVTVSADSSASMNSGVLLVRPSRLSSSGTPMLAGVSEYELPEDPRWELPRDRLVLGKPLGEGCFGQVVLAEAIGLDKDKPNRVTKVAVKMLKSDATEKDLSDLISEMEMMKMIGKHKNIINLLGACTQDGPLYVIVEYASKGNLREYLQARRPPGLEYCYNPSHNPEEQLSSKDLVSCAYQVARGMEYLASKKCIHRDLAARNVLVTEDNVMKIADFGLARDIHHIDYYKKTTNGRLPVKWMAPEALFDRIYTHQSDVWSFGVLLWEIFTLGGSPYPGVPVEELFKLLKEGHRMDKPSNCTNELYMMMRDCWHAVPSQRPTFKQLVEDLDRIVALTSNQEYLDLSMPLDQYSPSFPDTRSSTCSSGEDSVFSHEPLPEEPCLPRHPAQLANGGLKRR
UniProt P21802, whole entry, looked up: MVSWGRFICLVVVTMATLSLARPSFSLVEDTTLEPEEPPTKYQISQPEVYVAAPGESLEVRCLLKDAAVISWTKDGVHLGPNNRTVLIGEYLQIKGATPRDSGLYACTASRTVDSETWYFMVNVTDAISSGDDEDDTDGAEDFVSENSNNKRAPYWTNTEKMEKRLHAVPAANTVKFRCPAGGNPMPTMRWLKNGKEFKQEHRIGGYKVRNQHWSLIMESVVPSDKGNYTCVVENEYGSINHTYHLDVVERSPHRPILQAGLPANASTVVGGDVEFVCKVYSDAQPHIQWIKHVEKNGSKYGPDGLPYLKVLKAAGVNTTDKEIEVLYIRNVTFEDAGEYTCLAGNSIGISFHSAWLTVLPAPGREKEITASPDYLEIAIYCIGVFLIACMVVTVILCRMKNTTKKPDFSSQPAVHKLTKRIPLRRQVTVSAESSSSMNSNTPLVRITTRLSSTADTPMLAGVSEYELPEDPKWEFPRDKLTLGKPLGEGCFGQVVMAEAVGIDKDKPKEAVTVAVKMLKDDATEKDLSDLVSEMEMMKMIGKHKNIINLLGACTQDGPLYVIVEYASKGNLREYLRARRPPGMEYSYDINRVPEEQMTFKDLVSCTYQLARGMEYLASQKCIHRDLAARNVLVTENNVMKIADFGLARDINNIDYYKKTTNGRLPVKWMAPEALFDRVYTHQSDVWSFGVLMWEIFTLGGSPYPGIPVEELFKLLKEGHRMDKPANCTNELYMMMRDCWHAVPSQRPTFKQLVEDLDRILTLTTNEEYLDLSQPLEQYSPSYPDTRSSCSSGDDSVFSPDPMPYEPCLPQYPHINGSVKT
UniProt P22607, whole entry, looked up: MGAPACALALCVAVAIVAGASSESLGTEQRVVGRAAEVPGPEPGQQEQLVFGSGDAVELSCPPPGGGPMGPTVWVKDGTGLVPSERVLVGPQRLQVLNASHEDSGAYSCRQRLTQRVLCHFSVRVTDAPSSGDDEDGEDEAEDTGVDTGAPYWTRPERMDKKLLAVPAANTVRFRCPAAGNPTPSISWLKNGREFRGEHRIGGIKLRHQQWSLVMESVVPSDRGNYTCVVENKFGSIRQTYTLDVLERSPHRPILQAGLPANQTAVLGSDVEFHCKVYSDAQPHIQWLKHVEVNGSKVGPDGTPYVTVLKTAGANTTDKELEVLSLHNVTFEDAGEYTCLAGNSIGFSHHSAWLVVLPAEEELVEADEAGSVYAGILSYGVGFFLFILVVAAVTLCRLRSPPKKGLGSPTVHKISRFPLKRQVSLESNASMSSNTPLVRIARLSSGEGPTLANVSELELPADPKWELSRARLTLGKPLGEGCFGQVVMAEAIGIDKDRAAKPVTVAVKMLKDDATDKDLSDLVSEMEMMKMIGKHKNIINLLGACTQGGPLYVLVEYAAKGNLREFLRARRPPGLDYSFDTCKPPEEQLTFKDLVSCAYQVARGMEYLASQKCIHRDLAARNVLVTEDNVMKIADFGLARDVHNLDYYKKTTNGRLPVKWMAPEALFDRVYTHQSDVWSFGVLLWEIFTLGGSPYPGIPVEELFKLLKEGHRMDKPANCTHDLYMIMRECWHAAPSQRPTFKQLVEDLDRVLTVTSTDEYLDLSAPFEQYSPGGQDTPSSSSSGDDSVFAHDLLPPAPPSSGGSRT
UniProt P36888, whole entry: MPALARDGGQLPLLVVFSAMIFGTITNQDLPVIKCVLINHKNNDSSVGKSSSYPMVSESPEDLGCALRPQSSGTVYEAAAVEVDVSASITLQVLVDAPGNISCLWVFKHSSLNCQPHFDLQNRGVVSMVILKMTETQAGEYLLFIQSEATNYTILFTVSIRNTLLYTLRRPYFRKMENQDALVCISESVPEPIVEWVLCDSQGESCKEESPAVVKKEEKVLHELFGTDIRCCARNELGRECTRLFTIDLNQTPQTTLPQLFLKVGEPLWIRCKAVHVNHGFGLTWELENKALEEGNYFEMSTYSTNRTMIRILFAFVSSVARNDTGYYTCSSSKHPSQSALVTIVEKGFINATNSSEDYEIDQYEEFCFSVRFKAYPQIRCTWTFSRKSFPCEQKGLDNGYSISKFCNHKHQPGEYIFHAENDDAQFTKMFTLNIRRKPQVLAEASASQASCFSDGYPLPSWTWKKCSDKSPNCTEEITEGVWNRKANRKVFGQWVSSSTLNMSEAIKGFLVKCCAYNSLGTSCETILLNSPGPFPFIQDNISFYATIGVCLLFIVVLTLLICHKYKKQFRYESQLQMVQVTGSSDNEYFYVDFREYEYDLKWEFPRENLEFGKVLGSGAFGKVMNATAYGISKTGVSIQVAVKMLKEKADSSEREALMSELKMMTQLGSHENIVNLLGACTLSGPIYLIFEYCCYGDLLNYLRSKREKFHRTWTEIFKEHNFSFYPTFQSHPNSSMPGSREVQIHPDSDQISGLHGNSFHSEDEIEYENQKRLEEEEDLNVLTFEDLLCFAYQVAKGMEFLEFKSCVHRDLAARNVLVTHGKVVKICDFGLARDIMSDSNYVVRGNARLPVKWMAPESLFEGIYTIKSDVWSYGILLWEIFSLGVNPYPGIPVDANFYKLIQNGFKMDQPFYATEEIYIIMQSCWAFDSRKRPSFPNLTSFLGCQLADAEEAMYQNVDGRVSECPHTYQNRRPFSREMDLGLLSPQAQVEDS
UniProt P49840: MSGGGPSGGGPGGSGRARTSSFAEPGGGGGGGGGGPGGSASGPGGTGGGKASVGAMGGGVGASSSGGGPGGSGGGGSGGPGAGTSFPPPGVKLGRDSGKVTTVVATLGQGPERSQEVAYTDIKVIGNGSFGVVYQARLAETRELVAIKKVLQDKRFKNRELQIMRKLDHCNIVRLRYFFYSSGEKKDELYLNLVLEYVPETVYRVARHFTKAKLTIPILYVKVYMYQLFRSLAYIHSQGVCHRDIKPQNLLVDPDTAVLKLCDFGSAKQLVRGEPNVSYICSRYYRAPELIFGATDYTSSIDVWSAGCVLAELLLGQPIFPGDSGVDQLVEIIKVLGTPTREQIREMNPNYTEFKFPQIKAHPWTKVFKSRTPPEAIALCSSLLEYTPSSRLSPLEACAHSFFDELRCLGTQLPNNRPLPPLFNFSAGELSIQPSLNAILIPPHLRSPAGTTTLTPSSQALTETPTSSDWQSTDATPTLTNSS
UniProt P14616: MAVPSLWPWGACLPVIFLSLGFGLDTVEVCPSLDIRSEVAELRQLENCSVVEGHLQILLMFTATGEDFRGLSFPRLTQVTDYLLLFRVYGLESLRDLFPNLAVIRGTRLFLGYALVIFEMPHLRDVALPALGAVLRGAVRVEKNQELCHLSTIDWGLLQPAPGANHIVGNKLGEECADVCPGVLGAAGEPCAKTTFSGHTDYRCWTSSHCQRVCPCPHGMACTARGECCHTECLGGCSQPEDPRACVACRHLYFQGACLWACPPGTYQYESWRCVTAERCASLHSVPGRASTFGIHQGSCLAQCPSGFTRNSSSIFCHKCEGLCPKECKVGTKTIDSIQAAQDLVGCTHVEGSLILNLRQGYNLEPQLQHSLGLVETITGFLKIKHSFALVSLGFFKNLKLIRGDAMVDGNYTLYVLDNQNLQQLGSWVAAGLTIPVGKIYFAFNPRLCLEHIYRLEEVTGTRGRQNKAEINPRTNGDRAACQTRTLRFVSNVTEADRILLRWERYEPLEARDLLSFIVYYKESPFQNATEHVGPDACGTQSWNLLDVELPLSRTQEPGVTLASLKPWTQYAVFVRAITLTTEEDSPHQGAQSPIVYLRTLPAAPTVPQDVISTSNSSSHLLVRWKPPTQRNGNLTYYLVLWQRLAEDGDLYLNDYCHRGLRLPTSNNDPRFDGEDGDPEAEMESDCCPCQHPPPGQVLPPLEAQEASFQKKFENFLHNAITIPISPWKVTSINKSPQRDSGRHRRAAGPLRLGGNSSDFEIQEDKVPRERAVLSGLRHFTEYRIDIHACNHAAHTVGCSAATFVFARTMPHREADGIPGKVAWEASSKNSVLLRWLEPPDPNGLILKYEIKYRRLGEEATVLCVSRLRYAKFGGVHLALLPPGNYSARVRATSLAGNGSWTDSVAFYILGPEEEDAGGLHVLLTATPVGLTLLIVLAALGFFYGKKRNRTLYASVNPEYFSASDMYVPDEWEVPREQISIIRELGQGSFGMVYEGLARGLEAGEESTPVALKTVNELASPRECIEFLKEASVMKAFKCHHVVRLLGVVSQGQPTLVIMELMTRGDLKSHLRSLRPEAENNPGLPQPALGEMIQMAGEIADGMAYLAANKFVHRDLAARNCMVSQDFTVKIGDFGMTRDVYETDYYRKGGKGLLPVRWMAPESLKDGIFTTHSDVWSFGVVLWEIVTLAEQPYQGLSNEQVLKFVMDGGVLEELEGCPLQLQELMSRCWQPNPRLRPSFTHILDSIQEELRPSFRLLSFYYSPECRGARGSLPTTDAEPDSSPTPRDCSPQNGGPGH

How the values were obtained:
Test in all cases: kinase-Nluc reporter destabilization hit call (1 = scored as downregulated) (binary); higher = compound decreases kinase abundance
Conditions in all cases: K562; 2-18 h
ERN1 = ERN1 (UniProt O75460)
FGFR1 = FGFR1 (UniProt P11362)
FGFR2 = FGFR2 (UniProt P21802)
FGFR3 = FGFR3 (UniProt P22607)
FGR = FGR (UniProt P09769)
FLT3 = FLT3 (UniProt P36888)
FYN = FYN (UniProt P06241)
GSK3A = GSK3A (UniProt P49840)
HER2 = HER2 (UniProt P04626)
INSRR = INSRR (UniProt P14616)

Measured: kinase-Nluc reporter destabilization hit call

COc1cccc2cc(-c3nc([C@H]4CC[C@H](C(=O)O)CC4)n4ncnc(N)c34)[nH]c12 (2.5 µM)
inactive: ERN1 = 0 | FGFR1 = 0 | FGFR2 = 0 | FGFR3 = 0 | FGR 0 | FLT3 = 0 | FYN 0 | GSK3A 0 | HER2 = 0 | INSRR 0

CC(=O)c1cc(O)ccc1O [2,5-Dihydroxyacetophenone] (10 µM)
inactive: ERN1 = 0 | FGFR1 = 0 | FGFR2 = 0 | FGFR3 = 0 | FGR 0 | FLT3 = 0 | FYN 0 | GSK3A 0 | HER2 = 0 | INSRR 0

COc1cc(-c2cc(-c3cccc(O)c3)cnc2N)cc(OC)c1OC (2.5 µM)
inactive: ERN1 = 0 | FGFR1 = 0 | FGFR2 = 0 | FGFR3 = 0 | FGR 0 | FLT3 = 0 | FYN 0 | GSK3A 0 | HER2 = 0 | INSRR 0

O=C(CC(c1ccccc1)C(C(=O)O)C(=O)O)c1ccc(C(F)(F)F)cc1 (stereo not given) (10 µM)
inactive: ERN1 = 0 | FGFR1 = 0 | FGFR2 = 0 | FGFR3 = 0 | FGR 0 | FLT3 = 0 | FYN 0 | GSK3A 0 | HER2 = 0 | INSRR 0

CC(C)n1cnnc1-c1cccc(NC(=O)c2cc3ccc(F)cc3[nH]2)n1 (2.5 µM)
inactive: ERN1 = 0 | FGFR1 = 0 | FGFR2 = 0 | FGFR3 = 0 | FGR 0 | FLT3 = 0 | FYN 0 | GSK3A 0 | HER2 = 0 | INSRR 0

CCS(=O)(=O)c1ccc(Oc2cc(O[C@@H](C)CO)cc(C(=O)Nc3ccn(C)n3)c2)cn1 (10 µM)
inactive: ERN1 = 0 | FGFR1 = 0 | FGFR2 = 0 | FGFR3 = 0 | FGR 0 | FLT3 = 0 | FYN 0 | GSK3A 0 | HER2 = 0 | INSRR 0

O=C(Nc1ncc(SCCN2CCCC2)s1)[C@]1(c2ccc(S(=O)(=O)C3CC3)cc2)C[C@H]1C1CCCCC1 [Globalagliatin] (2.5 µM)
inactive: ERN1 = 0 | FGFR1 = 0 | FGFR2 = 0 | FGFR3 = 0 | FGR 0 | FLT3 = 0 | FYN 0 | GSK3A 0 | HER2 = 0 | INSRR 0

No new results follow: 2 of the compounds above.
CCS(=O)(=O)c1ccc(Oc2cc(O[C@@H](C)CO)cc(C(=O)Nc3ccn(C)n3)c2)cn1 (10 µM)
inactive: ERN1 = 0 | FGFR1 = 0 | FGFR2 = 0 | FGFR3 = 0 | FGR 0 | FLT3 = 0 | FYN 0 | GSK3A 0 | HER2 = 0 | INSRR 0

O=C(Nc1ncc(SCCN2CCCC2)s1)[C@]1(c2ccc(S(=O)(=O)C3CC3)cc2)C[C@H]1C1CCCCC1 [Globalagliatin] (2.5 µM)
inactive: ERN1 = 0 | FGFR1 = 0 | FGFR2 = 0 | FGFR3 = 0 | FGR 0 | FLT3 = 0 | FYN 0 | GSK3A 0 | HER2 = 0 | INSRR 0

More entries follow:

CCc1nc(C(N)=O)c(Nc2ccc(N3CCC(N4CCN(C)CC4)CC3)c(OC)c2)nc1NC1CCC(OC)CC1 (stereo not given) [EML4-ALK kinase inhibitor 1] (2.5 µM)
inactive: ERN1 = 0 | FGFR1 = 0 | FGFR2 = 0 | FGFR3 = 0 | FGR 0 | FLT3 = 0 | FYN 0 | GSK3A 0 | HER2 = 0 | INSRR 0

O=c1ccc2cc(O)c(O)cc2o1 [Esculetin] (10 µM)
inactive: ERN1 = 0 | FGFR1 = 0 | FGFR2 = 0 | FGFR3 = 0 | FGR 0 | FLT3 = 0 | FYN 0 | GSK3A 0 | HER2 = 0 | INSRR 0

C=CCN(/C=C1/C(=O)O[C@H](COC)[C@@]2(C)C1=C(O)C(=O)C1=C2[C@H](OC(C)=O)C[C@]2(C)C(=O)CC[C@@H]12)CC=C [Sonolisib] (2.5 µM)
inactive: ERN1 = 0 | FGFR1 = 0 | FGFR2 = 0 | FGFR3 = 0 | FGR 0 | FLT3 = 0 | FYN 0 | GSK3A 0 | HER2 = 0 | INSRR 0

C[C@@H]1CN(Cc2cn[nH]c2-c2ccc(C#N)cc2)CCN1c1ccc(C(F)(F)F)cn1 (2.5 µM)
inactive: ERN1 = 0 | FGFR1 = 0 | FGFR2 = 0 | FGFR3 = 0 | FGR 0 | FLT3 = 0 | FYN 0 | GSK3A 0 | HER2 = 0 | INSRR 0

COc1ccc2c(c1)C[C@H](C(=O)Nc1ccc(-c3cn[nH]c3)cc1OCCN(C)C)CO2 [Chroman 1] (10 µM)
inactive: ERN1 = 0 | FGFR1 = 0 | FGFR2 = 0 | FGFR3 = 0 | FGR 0 | FLT3 = 0 | FYN 0 | GSK3A 0 | HER2 = 0 | INSRR 0

C=CC(=O)Nc1cccc(Nc2nc(Nc3ccc(Oc4ccnc(C(=O)NC)c4)cc3)ncc2F)c1 (2.5 µM)
inactive: ERN1 = 0 | FGFR1 = 0 | FGFR2 = 0 | FGFR3 = 0 | FGR 0 | FLT3 = 0 | FYN 0 | GSK3A 0 | HER2 = 0 | INSRR 0

CCOc1cc(C(=O)N2CCC(N3CCN(C)CC3)CC2)ccc1Nc1ncc2c(n1)N(S(C)(=O)=O)c1ccccc1C(=O)N2C (10 µM)
inactive: ERN1 = 0 | FGFR1 = 0 | FGFR2 = 0 | FGFR3 = 0 | FGR 0 | FLT3 = 0 | FYN 0 | GSK3A 0 | HER2 = 0 | INSRR 0

Cc1occ2c1C(=O)c1c(O)ccc(O)c1C2 (2.5 µM)
inactive: ERN1 = 0 | FGFR1 = 0 | FGFR2 = 0 | FGFR3 = 0 | FGR 0 | FLT3 = 0 | FYN 0 | GSK3A 0 | HER2 = 0 | INSRR 0

CC(C)(C)S(=O)(=O)c1cc2c(Nc3ccc4scnc4c3)ccnc2cc1OCCOCCOCCOCCOCC(=O)Nc1cccc2c1CN(C1CCC(=O)NC1=O)C2=O (stereo not given) [PROTAC RIPK degrader-6] (10 µM)
inactive: ERN1 = 0 | FGFR1 = 0 | FGFR2 = 0 | FGFR3 = 0 | FGR 0 | FLT3 = 0 | FYN 0 | GSK3A 0 | HER2 = 0 | INSRR 0

Nc1n[nH]c(N)c1N=Nc1ccc(O)cc1 (10 µM)
inactive: ERN1 = 0 | FGFR1 = 0 | FGFR2 = 0 | FGFR3 = 0 | FGR 0 | FLT3 = 0 | FYN 0 | GSK3A 0 | HER2 = 0 | INSRR 0

CC(C)n1nc(C#Cc2ccccc2)c2c(N)ncnc21 (10 µM)
inactive: ERN1 = 0 | FGFR1 = 0 | FGFR2 = 0 | FGFR3 = 0 | FGR 0 | FLT3 = 0 | GSK3A 0 | HER2 = 0 | INSRR 0
active: FYN 1

COc1cc(Nc2nc3ccccc3nc2NS(=O)(=O)c2ccc(NC(=O)c3ccc(C)c(OC)c3)cc2)cc(OC)c1 (10 µM)
inactive: ERN1 = 0 | FGFR1 = 0 | FGFR2 = 0 | FGFR3 = 0 | FGR 0 | FLT3 = 0 | FYN 0 | GSK3A 0 | HER2 = 0 | INSRR 0

COc1c(OCCCN2CCOCC2)ccc2c3n(c(=NC(=O)c4cnc(N)nc4)nc12)CCN3 [Copanlisib (dihydrochloride)] (10 µM)
inactive: ERN1 = 0 | FGFR1 = 0 | FGFR2 = 0 | FGFR3 = 0 | FGR 0 | FLT3 = 0 | FYN 0 | GSK3A 0 | HER2 = 0 | INSRR 0

NC(=O)c1ccc2nc(-c3ccc(C4(N)CCC4)cc3)c(-c3ccccc3)n2n1 (10 µM)
inactive: ERN1 = 0 | FGFR1 = 0 | FGFR2 = 0 | FGFR3 = 0 | FGR 0 | FLT3 = 0 | FYN 0 | GSK3A 0 | HER2 = 0 | INSRR 0

CN(C)C(=O)c1cc2cnc(Nc3ccc(NC(=O)C4(C(=O)Nc5ccc(F)cc5)CC4)cc3)nc2n1C1CCCC1 (2 µM)
inactive: ERN1 = 0 | FGFR1 = 0 | FGFR2 = 0 | FGFR3 = 0 | FGR 0 | FLT3 = 0 | FYN 0 | HER2 = 0 | INSRR 0
active: GSK3A 1

CC1=C(C(=O)Nc2ccc3[nH]ncc3c2)C(c2ccc(F)c(C(=O)NCc3ccccn3)c2)NC(=O)N1 (stereo not given) (10 µM)
inactive: ERN1 = 0 | FGFR1 = 0 | FGFR2 = 0 | FGFR3 = 0 | FGR 0 | FLT3 = 0 | FYN 0 | GSK3A 0 | HER2 = 0 | INSRR 0

Cc1nc(Nc2ncc(C(=O)Nc3c(C)cccc3Cl)s2)cc(N2CCN(C(=O)CCCCCCC(=O)N[C@H](C(=O)N3C[C@H](O)C[C@H]3C(=O)NCc3ccc(-c4scnc4C)cc3)C(C)(C)C)CC2)n1 (2.5 µM)
active: FGR 1
inactive: ERN1 = 0 | FGFR1 = 0 | FGFR2 = 0 | FGFR3 = 0 | FLT3 = 0 | FYN 0 | GSK3A 0 | HER2 = 0 | INSRR 0

CC(C)c1cnn2c(NCc3ccccc3)cc(NCCCCCCN)nc12 [BS-181 (hydrochloride)] (10 µM)
inactive: ERN1 = 0 | FGFR1 = 0 | FGFR2 = 0 | FGFR3 = 0 | FGR 0 | FLT3 = 0 | FYN 0 | GSK3A 0 | HER2 = 0 | INSRR 0

CNC(=O)c1ccc(-c2cnc3ncc(Cc4ccc5ncccc5c4)n3n2)cc1F [Capmatinib] (10 µM)
inactive: ERN1 = 0 | FGFR1 = 0 | FGFR2 = 0 | FGFR3 = 0 | FGR 0 | FLT3 = 0 | FYN 0 | GSK3A 0 | HER2 = 0 | INSRR 0

Cc1ccc(Nc2c(C(N)=O)cnc3cc(-c4ccncc4)ccc23)cc1C [cFMS Receptor Inhibitor II] (10 µM)
inactive: ERN1 = 0 | FGFR1 = 0 | FGFR2 = 0 | FGFR3 = 0 | FGR 0 | FLT3 = 0 | FYN 0 | GSK3A 0 | HER2 = 0 | INSRR 0

CC(=O)Nc1nc(C)c(-c2ccc(Cl)c(S(=O)(=O)NCCO)c2)s1 (10 µM)
inactive: ERN1 = 0 | FGFR1 = 0 | FGFR2 = 0 | FGFR3 = 0 | FGR 0 | FLT3 = 0 | FYN 0 | GSK3A 0 | HER2 = 0 | INSRR 0
